# According to article PMC12670160, “A drug-repurposing screen of FDA- and EMA-approved drugs identifies two NF-κB inhibitors active against eumycetoma” (Journal of Antimicrobial Chemotherapy, 2025):
# The whole screen tested about 5,300 compounds, of which about 130 (2.5%) showed an effect of 50% or more. Some of the results follow.
# System: M. mycetomatis strain mm55
# Settings: primary screen, metabolic activity vs growth control; 96 h, 2 µM; inhibitor
row,Structure (SMILES),% viability [%]
1,"O=[N+]([O-])c1ccccc1S(=O)(=O)NC[C@H]1CC[C@H](CNCC2CCc3ccccc3C2)CC1 (some centres unmarked) [ONC0000121, ntncb]",80.22
2,"Cc1cc(C(=O)Nc2cc(Oc3ccc4nc(NC(=O)C5CC5)cn4n3)ccc2C)n(C)n1 [ONC0000850, tak593]",90.33
3,"CCC(CC)Nc1cc(C)nc(Oc2c(C)cc(C)cc2C)c1C [ONC0001981, cp376395]",91.75
4,"Oc1cc(Cl)ccc1Oc1ccc(Cl)cc1Cl [ONC0004211, triclosan]",105.1
5,"CN(C)CCc1c[nH]c2ccc(Cn3cncn3)cc12 [ONC0004846, rizatriptan benzoate maxalt]",110.8
6,"CC(C)(C)NCc1cc(Nc2ccnc3cc(Cl)ccc23)c2c(c1O)CCCC2 [ONC0002209, naphthoquine phosphate]",128.7
7,"OCCN1CCN(CCCN2c3ccccc3Sc3ccc(Cl)cc32)CC1 [ONC0002396, perphenazine]",90.87
8,"C=CC1=C(C)c2cc3[nH]c(cc4nc(cc5[nH]c(cc1n2)c(C)c5CCC(=O)O)C(CCC(=O)OC)=C4C)[C@@]1(C)C3=CC=C(C(=O)OC)[C@H]1C(=O)OC [ONC0001491, verteporfin]",55.47
9,"OC[C@H]1O[C@@H](Oc2ccc(O)cc2)[C@H](O)[C@@H](O)[C@@H]1O [ONC0005232, arbutin uva parbutin]",106.2
10,"O=C(c1ccc(C(=O)N2CCC(N3CCCC3)CC2)c(Nc2ccccc2)c1)N1CCC(N2CCCC2)CC1 [ONC0004329, unc1215]",110.8
11,"N#CCC1(n2cc(-c3ncnc4[nH]ccc34)cn2)CN(C2CCN(C(=O)c3ccnc(C(F)(F)F)c3F)CC2)C1 [ONC0002059, itacitinib]",75.61
12,"Nc1ccc(S(=O)(=O)c2ccc(N)cc2)cc1 [ONC0000297, dapsone]",73.16
13,"O=Nc1ccc(O)c2ncccc12 [ONC0003663, nsc3852]",78.63
14,"Nc1ccc(C(=O)NCC(=O)O)cc1 [ONC0002867, aminohippuric acid]",94.65
15,"COc1ccc(NS(=O)(=O)c2ccc(N)cc2)nn1 [ONC0000622, sulfamethoxypyridazine]",113.3
16,"COc1ncc2cc(C(=O)Nc3cc(C(=O)NCc4cccc(Cl)c4)ccc3Cl)c(=O)[nH]c2n1 [ONC0003104, tcs7004]",76.63
17,"CCCC(=O)O[C@]1(C(=O)COC(C)=O)CC[C@H]2[C@@H]3C[C@H](F)C4=CC(=O)C=C[C@]4(C)[C@@]3(F)[C@@H](O)C[C@@]21C [ONC0004400, difluprednate]",133.8

# Single values from above:
# For % viability [%], `N#CCC1(n2cc(-c3ncnc4[nH]ccc34)cn2)CN(C2CCN(C(=O)c3ccnc(C(F)(F)F)c3F)CC2)C1` [ONC0002059, itacitinib] is listed with 75.61
# For % viability [%], `C=CC1=C(C)c2cc3[nH]c(cc4nc(cc5[nH]c(cc1n2)c(C)c5CCC(=O)O)C(CCC(=O)OC)=C4C)[C@@]1(C)C3=CC=C(C(=O)OC)[C@H]1C(=O)OC` [ONC0001491, verteporfin] is listed with 55.47
